Data as given in PubChem BioAssay AID686938 (Drosophila RNAi Screening Center, 2013).
The screen tested about 23,000 reagents; shown is a random part of those that have a named target and a result. Over the whole deposit, 75 (0.33%) are marked active. 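Raw plate signals without normalisation; calls rest on plate z-scores that were not deposited; ratio present for only 364 wells.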 Unmarked entries are inactive. Names joined by + are all predicted targets of the reagent. No sequences are given here. The record does not give: the dose of the treatment.

Aim: 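Knock-downs reducing store-operated calcium influx in Drosophila cells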 (primary screen)
System: Drosophila S2R+ cells
Reagents: long dsRNA against Drosophila genes, about 0.25 µg dsRNA per well, roughly 10,000 cells
Timing: 5 days of knock-down before the calcium assay
Conditions: thapsigargin (SERCA pump blocker) to empty calcium stores; entry signal taken 4 min after adding it
Measurement: 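Per-well fluo-4 fluorescence in two replicates, unnormalised, measured in resting cells and 4 min after store depletion by the SERCA blocker thapsigargin; ratio of the two present in few wells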
Reading the numbers: calcium entry signal: higher = stronger calcium signal after store depletion; resting calcium signal: higher = higher resting calcium signal
Rule for the call: 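Hit if the duplicate-averaged plate z-score for entry over resting signal is under −3; wells with weak total dye signal (Fmax z < −2) or more than 5 off-targets removed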
Calls: active = strongly reduced calcium entry; inactive = no strong reduction

| target gene | dsRNA | calcium entry signal, replicate 1 (fluorescence units) | calcium entry signal, replicate 2 (fluorescence units) | resting calcium signal, replicate 1 (fluorescence units) | resting calcium signal, replicate 2 (fluorescence units) |
| --- | --- | --- | --- | --- | --- |
| CG31266 | DRSC15747 | 3.85e7 | 3.78e7 | 1.80e7 | 5.37e7 |
| CG34300 | DRSC13977 | 3.91e7 | 3.37e7 | 1.76e7 | 1.72e7 |
| CG7294 | DRSC03041 | 3.47e7 | 5.04e7 | 1.46e7 | 2.30e7 |
| regucalcin | DRSC18908 | 2.38e7 | 3.81e7 | 1.18e7 | 1.65e7 |
| regucalcin | DRSC20366 | 4.17e7 | 4.70e7 | 1.98e7 | 2.11e7 |
| CG31729 | DRSC02524 | 4.09e7 | – | 2.19e7 | – |
| CG31729 | DRSC02946 | 3.33e7 | 1.93e7 | 1.54e7 | 9.56e6 |
| capu | DRSC00208 | 2.61e7 | 3.97e7 | 1.44e7 | 1.75e7 |
| capu | DRSC00209 | 2.32e7 | 4.00e7 | 1.35e7 | 1.87e7 |
| capu | DRSC00434 | 3.78e7 | 3.20e7 | 1.88e7 | 1.60e7 |
| capu | DRSC00807 | 4.39e7 | – | 2.41e7 | – |
| pelo | DRSC03588 | 4.14e7 | – | 1.99e7 | – |
| Oseg1 | DRSC10776 | 4.54e7 | 3.05e7 | 2.81e7 | 1.37e7 |
| Cyp4e2 | DRSC07371 | 4.35e7 | 3.71e7 | 1.73e7 | 1.64e7 |
| CG5103 | DRSC10481 | 3.12e7 | 6.07e7 | 1.72e7 | 2.47e7 |
| MFS12 | DRSC07268 | 3.17e7 | 2.85e7 | 1.36e7 | 1.38e7 |
| CG4627 | DRSC06873 | 2.41e7 | 3.51e7 | 1.28e7 | 1.56e7 |
| CG4375 | DRSC00653 | 3.00e7 | 2.85e7 | 1.47e7 | 1.28e7 |
| CG12099 | DRSC08253 | 3.09e7 | 3.73e7 | 1.50e7 | 1.65e7 |
| Cow | DRSC13601 | 3.64e7 | 2.19e7 | 1.80e7 | 1.14e7 |
| Cow | DRSC14680 | 4.72e7 | 5.10e7 | 2.31e7 | 2.17e7 |
| CG14085 | DRSC10089 | 2.79e7 | 5.01e7 | 1.36e7 | 2.06e7 |
| MTF-1 | DRSC08983 | 3.71e7 | 3.74e7 | 2.05e7 | 1.78e7 |
| MTF-1 | DRSC11217 | 2.26e7 | 4.40e7 | 1.18e7 | 2.23e7 |
| MTF-1 | DRSC21341 | 2.41e7 | 3.42e7 | 1.18e7 | 1.53e7 |
| Taf2 | DRSC11298 | 4.01e7 | 2.47e7 | 2.75e7 | 1.07e7 |
| Dcp-1 | DRSC04609 | 4.44e7 | – | 2.04e7 | – |
| Pi3K21B | DRSC00771 | 4.07e7 | – | 2.17e7 | – |
| Tmem131 | DRSC07154 | 3.33e7 | 2.49e7 | 1.51e7 | 1.29e7 |
| CG10311 | DRSC14228 | 3.49e7 | 4.65e7 | 1.64e7 | 8.38e7 |
| CG4546 | DRSC15593 | 4.42e7 | 5.46e7 | 1.90e7 | 6.87e7 |
| CG12783 | DRSC14538 | 2.14e7 | 2.34e7 | 1.11e7 | 3.31e7 |
| CG34040 | DRSC03902 | 2.57e7 | 4.86e7 | 1.18e7 | 2.00e7 |
| gukh | DRSC14768 | 3.40e7 | 3.32e7 | 4.04e7 | 1.44e7 |
| gukh | DRSC15806 | 3.69e7 | 3.37e7 | 4.56e7 | 1.52e7 |
| gukh | DRSC15944 | 3.07e7 | 2.45e7 | 1.57e7 | 1.19e7 |
| CG43673 + CG43672 | DRSC19452 | 4.01e7 | 3.50e7 | 2.03e7 | 1.74e7 |
| CG43673 + CG43672 | DRSC20108 | 3.53e7 | 3.50e7 | 1.88e7 | 1.64e7 |
| CG15471 | DRSC18054 | 2.60e7 | 4.24e7 | 1.33e7 | 1.98e7 |
| CG43317 | DRSC15000 | 2.95e7 | 4.08e7 | 1.45e7 | 5.33e7 |
| tap | DRSC11402 | 4.54e7 | 5.12e7 | 2.04e7 | 2.36e7 |
| CG31157 | DRSC21832 | 3.16e7 | 3.39e7 | 1.77e7 | 1.50e7 |
| bgcn | DRSC04062 | 4.56e7 | 5.47e7 | 2.19e7 | 2.40e7 |
| bgcn | DRSC04063 | 4.19e7 | 4.73e7 | 2.14e7 | 2.30e7 |
| Ir75a | DRSC10188 | 3.33e7 | 4.82e7 | 1.77e7 | 2.14e7 |
| Cpr65Au | DRSC22738 | 4.28e7 | 3.83e7 | 2.44e7 | 1.77e7 |
| ss | DRSC17069 | 4.23e7 | 5.29e7 | 1.98e7 | 7.98e7 |
| CG15864 | DRSC15122 | 5.21e7 | 4.02e7 | 2.56e7 | 1.83e7 |
| Lipt1 | DRSC05600 | 1.60e7 | 4.27e7 | 7.53e6 | 2.41e7 |
| wapl | DRSC18851 | 2.90e7 | 3.50e7 | 1.44e7 | 1.74e7 |
| CG5122 | DRSC02816 | 5.32e7 | 4.20e7 | 2.46e7 | 1.91e7 |
| CG34204 | DRSC03897 | 2.05e7 | 3.91e7 | 9.51e6 | 1.52e7 |
| Pcmt | DRSC12363 | 3.83e7 | 2.66e7 | 1.78e7 | 1.24e7 |
| Tbce | DRSC04897 | 3.54e7 | – | 1.67e7 | – |
| Pde6 | DRSC16401 | 3.11e7 | 4.84e7 | 1.38e7 | 1.94e7 |
| Pde6 | DRSC16402 | 2.67e7 | 4.49e7 | 1.29e7 | 6.64e7 |
| Pde6 | DRSC16403 | 2.49e7 | 4.41e7 | 1.42e7 | 6.42e7 |
| CG15431 | DRSC00446 | 2.94e7 | 2.23e7 | 1.44e7 | 1.05e7 |
| mle | DRSC04921 | 3.65e7 | 3.56e7 | 2.09e7 | 1.88e7 |
| CG14297 | DRSC14776 | 1.79e7 | 1.98e7 | 1.12e7 | 3.35e7 |
| moon | DRSC19497 | 4.01e7 | 5.21e7 | 1.99e7 | 2.27e7 |
| CG12689 | DRSC17879 | 3.29e7 | 3.49e7 | 1.59e7 | 1.69e7 |
| CG32808 | DRSC17689 | 2.60e7 | 4.24e7 | 1.35e7 | 1.60e7 |
| CG10553 | DRSC14254 | 2.97e7 | 8.32e7 | 1.76e7 | 3.43e7 |
| CG9107 | DRSC03138 | 3.15e7 | – | 1.83e7 | – |
| Prm | DRSC08941 | 3.87e7 | 5.02e7 | 2.01e7 | 2.21e7 |
| Prm | DRSC08942 | 4.25e7 | 4.51e7 | 2.26e7 | 2.49e7 |
| Prm | DRSC11255 | 3.89e7 | 3.00e7 | 2.67e7 | 1.34e7 |
| pippin | DRSC04489 | 2.70e7 | – | 1.36e7 | – |
| Mf | DRSC16120 | 3.62e7 | 6.06e7 | 1.80e7 | 6.25e7 |
| RhoGAP92B | DRSC14507 | 3.79e7 | 4.23e7 | 5.71e7 | 1.84e7 |
| RhoGAP92B | DRSC15637 | 3.39e7 | 3.77e7 | 5.57e7 | 1.64e7 |
| CG43111 | DRSC05796 | 2.25e7 | 4.60e7 | 1.06e7 | 2.00e7 |
| CG31370 | DRSC21453 | 3.42e7 | 3.52e7 | 2.05e7 | 1.50e7 |
| CG17242 | DRSC00493 | 3.09e7 | 2.72e7 | 1.41e7 | 1.24e7 |

4 entries from above, limited to “resting calcium signal, replicate 1 (fluorescence units)”:
regucalcin [DRSC20366] = 1.98e7
CG31729 [DRSC02524] = 2.19e7
CG31729 [DRSC02946] = 1.54e7
capu [DRSC00208] = 1.44e7
